Measurements reported in PubChem BioAssay AID652243 (Drosophila RNAi Screening Center, 2013)

Purpose: 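Fly regulators of androgen-dependent reporter output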 (primary screen)
System: Drosophila S2R+ cells
Reagent: long dsRNA against Drosophila genes
Time to read-out: 72 h (48 h, then 24 h hormone)
Challenge: synthetic androgen R1881 at 10 nM for 24 h
Detection: 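Firefly light from an androgen-responsive reporter and Renilla control light per well, raw and unnormalised, for each of two replicates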
Scale: firefly reporter light: higher = more light from androgen-responsive reporter; Renilla control light: higher = more constitutive control signal (cell number, transfection)
Rule for the call: 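Across duplicate plates, a knock-down whose log firefly/Renilla ratio shifted a set fold down or up from the GFP/LacZ control mean was a hit; the downward cut appears as both 1.5 and 3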
Calls: active = hit: reporter lowered or raised; inactive = no hit
The screen tested about 24,000 reagents; shown is an unselected part of those with a known target gene and a result. Of all reagents, 246 (1%) are marked active. 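Plates not normalised; calls are printed but the firefly/Renilla ratio behind them is not deposited; fold cut for lowering reported inconsistently.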 Raw values vary from plate to plate and are shown uncorrected. Names joined by + are all predicted targets of the reagent. Not given: the amount of reagent.

gene	PubChem SID	firefly reporter light, replicate 1	firefly reporter light, replicate 2	Renilla control light, replicate 1	Renilla control light, replicate 2	call
garz (gartenzwerg)	SID104186985	2.70e5	2.85e5	1.37e6	1.44e6	inactive
slou (slouch)	SID104196850	2.00e5	2.47e5	3.02e6	3.23e6	inactive
slou (slouch)	SID104203779	2.89e5	1.36e5	8.69e5	5.22e5	inactive
CG7600	SID104189473	4.97e5	3.31e5	1.51e6	1.21e6	inactive
CG7600	SID104203874	6.14e5	8.33e5	6.79e5	9.16e5	inactive
hfw (halfway)	SID104198298	3.06e5	2.47e5	3.58e6	3.24e6	inactive
hfw (halfway)	SID104204502	7.99e5	6.96e5	1.18e6	1.09e6	inactive
Cdc16 (Cell division cycle 16)	SID104196712	1.71e5	1.78e5	2.49e6	2.48e6	inactive
Tdc2 (Tyrosine decarboxylase 2)	SID104184791	3.36e5	2.28e5	1.80e6	1.37e6	inactive
Tdc2 (Tyrosine decarboxylase 2)	SID104207496	8.78e5	7.68e5	1.57e6	1.48e6	inactive
AstA (Allatostatin A)	SID104194426	1.56e5	2.41e5	2.84e6	3.30e6	inactive
CG14610 + asRNA:CR42738	SID104192346	53488	78076	1.81e6	1.16e6	inactive
CG42537	SID104192311	45010	43002	1.14e6	1.43e6	inactive
Obp58b (Odorant-binding protein 58b)	SID104183953	2.14e5	2.22e5	1.47e6	1.51e6	inactive
Ufd4 (Ubiquitin fusion-degradation 4-like)	SID104182663	2.31e5	2.85e5	1.05e6	1.24e6	inactive
CG1896	SID104195189	53788	68144	4.95e5	2.72e5	inactive
CG11666	SID104201859	7.52e5	6.84e5	1.80e6	1.51e6	inactive
fd19B (forkhead domain 19B)	SID104200480	5.09e5	6.60e5	1.82e6	2.11e6	inactive
fd19B (forkhead domain 19B)	SID104204991	4.21e5	3.23e5	5.52e5	3.54e5	inactive
CG14342	SID104180164	1.62e5	1.23e5	7.64e5	9.46e5	inactive
CG14342	SID104203674	8.74e5	8.94e5	1.39e6	1.18e6	inactive
mfr (misfire)	SID104190335	52382	1.88e5	5.08e5	1.87e6	inactive
Trm1 (tRNA methyltransferase 1)	SID104182743	9.71e5	9.61e5	2.27e6	2.60e6	inactive
CG18547	SID104195137	1.32e5	1.52e5	2.19e6	1.97e6	inactive
ATPsynE (ATP synthase, subunit E)	SID104195268	99794	1.11e5	6.76e5	1.02e6	inactive
ATPsynE (ATP synthase, subunit E)	SID104208647	8.08e5	7.40e5	1.13e6	9.60e5	inactive
Snap24 (Synaptosomal-associated protein 24kDa)	SID104196656	93662	80069	1.51e6	1.75e6	inactive
Idh3a (Isocitrate dehydrogenase 3a)	SID104199238	2.05e5	2.06e5	9.63e5	5.05e5	inactive
Idh3a (Isocitrate dehydrogenase 3a)	SID104206847	7.42e5	9.15e5	1.70e6	2.21e6	inactive
CG13083	SID104181979	66854	77367	1.05e6	8.76e5	inactive
CG13083	SID104206968	2.83e5	3.86e5	3.57e5	7.69e5	inactive
tank	SID104180253	65423	54650	5.38e5	4.46e5	inactive
Ten-a (Tenascin accessory)	SID104198716	1.82e6	1.04e6	2.56e6	9.72e5	inactive
Ten-a (Tenascin accessory)	SID104199492	4.89e5	4.59e5	3.69e6	4.17e6	inactive
Ten-a (Tenascin accessory)	SID104199585	4.23e5	4.28e5	3.62e6	3.98e6	inactive
Ten-a (Tenascin accessory)	SID104199656	5.36e5	6.36e5	3.61e6	3.84e6	inactive
Ten-a (Tenascin accessory)	SID104199657	5.60e5	4.91e5	4.11e6	3.14e6	inactive
Ten-a (Tenascin accessory)	SID104200082	4.59e5	3.92e5	2.93e6	3.42e6	inactive
Ten-a (Tenascin accessory)	SID104201199	7.79e5	6.78e5	1.93e6	1.53e6	inactive
Ten-a (Tenascin accessory)	SID104202373	6.43e5	1.12e6	1.28e6	1.77e6	inactive
Ten-a (Tenascin accessory)	SID104208142	8.33e5	9.21e5	1.65e6	1.65e6	inactive
CG12590	SID104192008	44611	90883	1.38e6	1.49e6	inactive
B52	SID104193913	5.99e5	5.40e5	1.93e6	1.71e6	inactive
B52	SID104204028	7.07e5	7.60e5	1.07e6	1.07e6	inactive
CG3457	SID104198301	1.12e5	76876	6.72e5	4.45e5	inactive
CG3457	SID104205002	3.54e5	3.13e5	6.67e5	8.48e5	inactive
mud (mushroom body defect)	SID104198811	4.20e5	2.61e5	3.65e5	1.74e5	inactive
alphaTub67C (alpha-Tubulin at 67C)	SID104191113	1.53e5	1.77e5	1.91e6	1.89e6	inactive
alphaTub67C (alpha-Tubulin at 67C)	SID104203708	7.47e5	6.82e5	8.08e5	9.19e5	inactive
CG3880	SID104184220	3.45e5	3.89e5	2.20e6	2.75e6	inactive
CG3880	SID104201166	6.35e5	7.84e5	2.05e6	2.17e6	inactive
CG3880	SID104205993	1.87e5	2.64e5	4.10e5	6.66e5	inactive
EMC1 (ER membrane protein complex subunit 1)	SID104195247	59027	82796	4.63e5	4.39e5	inactive
CG8509	SID104199901	1.00e5	1.06e5	6.07e5	6.82e5	inactive
CG8509	SID104214393					inactive
Atf3 (Activating transcription factor 3)	SID104202353	8.03e5	9.67e5	1.26e6	1.61e6	inactive
l(3)76BDm (lethal (3) 76BDm)	SID104190839	31578	29304	3.16e5	2.65e5	inactive
Tk (Tachykinin)	SID104194746	4.41e5	4.72e5	1.81e6	2.16e6	inactive
Tk (Tachykinin)	SID104201582	6.04e5	7.35e5	1.56e6	1.38e6	inactive
Tk (Tachykinin)	SID104205684	2.66e5	2.36e5	6.52e5	4.22e5	inactive

Single entries from the list.
Ten-a (Tenascin accessory) [SID104200082], firefly reporter light, replicate 1: 4.59e5
Value of CG14342 [SID104203674] under “Renilla control light, replicate 1”: 1.39e6
Ufd4 (Ubiquitin fusion-degradation 4-like) [SID104182663], call = inactive
Snap24 (Synaptosomal-associated protein 24kDa) [SID104196656], firefly reporter light, replicate 1: 93662
Entry for Idh3a (Isocitrate dehydrogenase 3a) [SID104206847] under “call”: inactive
CG3880 [SID104205993], call → inactive
